Data published in ChEMBL document CHEMBL1155233, “Structure mechanism insights and the role of nitric oxide donation guide the development of oxadiazole-2-oxides as therapeutic agents against schistosomiasis” (J Med Chem, 2009).
Values after ≈ are worked out from the molar mass of the structure shown.

Legend:
[1] = Solubility by quantitative nitrogen detection based method
[2] = Distribution coefficient, log D of the compound; conditions: octanol/water
[3] = Metabolic stability in human liver microsomes assessed as compound remaining over 60 mins in presence of NADPH; assay type: ADME, Microsome; conditions: read-out: Stability

Work on N#Cc1c(-c2csc(-c3no[n+]([O-])c3C#N)c2)no[n+]1[O-] yielded a solubility [1] of 122 µM (≈ 36.9 µg/mL), a logD [2] of 2.92 and a remaining at 1 h [3] of 12%.
